In publication PMC12814185 (Journal of the American Chemical Society, 2025):

Legend:
HEK293_CMKLR1-eYFP cells = test: Fluorescence correlation spectroscopy (FCS) in the cytosol; details: 72 h incubation
Experimental: (§1) 3 Quantification of Cy5-labeled peptides in the cytosol. (A) RP-HPLC (λex = 640 nm, λem = 670 nm) of cleavage products of Cy5-labeled peptides in the lysate of HEK293_CMKLR1-eYFP cells after incubation with 1 μM peptide for different durations. […] (B) Representative fluorescence correlation spectroscopy (FCS) autocorrelation curves of Cy5-labeled peptides measured in the cytosol of HEK293_CMKLR1-eYFP cells after 72 h of incubation. Measured curves were fitted with a model for hindered 3D diffusion and diffusion time t D and anomalous coefficient α were calculated from the fit. Autocorrelation data represent mean ± SD of up to 10 consecutive 5 s measurements in a single cell. (C) Intracellular concentrations of Cy5-labeled peptides after 72 h incubation calculated from the fitted autocorrelation curves obtained in HEK293_CMKLR1-eYFP, HMEC-1, and THP-1 cells. Each data point corresponds to FCS measurements from the cytosol of a single cell. Median with the interquartile range is shown. Data from three independent experiments. Statistical comparison by log-normal unpaired t test. ***p ≤ 0.001, **p ≤ 0.01, *p ≤ 0.05, ns – not significant. […] (D) Calculated diffusion coefficients from the fitted autocorrelation curves. Median with the interquartile range is shown. […]
(§2) Fluorescence correlation spectroscopy (FCS)
(§3) Cytosolic delivery was quantified by FCS as has been described previously.3–5 Stably transfected HEK293_CMKLR1-eYFP cells were seeded at 30,000 cells per well and HMEC-1 cells at 10,000 cells per well into poly-ᴅ-lysine-coated 8-well microscopy slides (ibidi) in their respective cell culture medium. THP-1 cells were resuspended in fresh cell culture medium at 100,000 cells/mL in 500 µL cell culture medium in uncoated 12-well plates. The next day, dilutions of Cy5-labeled peptides were added to the cells and incubated for 72 h. Cell membranes of HMEC-1 and THP-1 cells were stained with 20 µg/mL Alexa Fluor 488-labeled concanavalin A (Invitrogen) for 20 min to enable identification of the cytosol. Nuclei were counterstained with Hoechst33342, and cells were washed with FluoroBriteTM DMEM (Gibco) + 25 mM HEPES (pH 7.4). After washing, THP-1 cells were transferred to poly-ᴅ-lysine-coated 8-well microscopy slides and allowed to sediment and adhere for 1 h. Confocal imaging and FCS were performed at 22 °C on a TCS SP8 FALCON microscope (Leica) with a Plan-Apochromat 40x/1,10 water immersion objective and HyD single molecule detector (Leica). The 638 nm laser line was used for excitation at 0.5% power and […]

HMEC-1 cells = test: as above; details: HMEC-1 cytosol, 72 h incubation
Experimental: as §1, §2, §3

THP-1 cells = test: as above; details: THP-1 cytosol, 72 h incubation
Experimental: as §1, §2, §3

[1] = general procedure: Fmoc solid-phase peptide synthesis; TGR Rink amide resin (NovaSyn); oxyma/DIC; HATU/DIPEA for ethylene glycol linkers; details: for final HPLC purity: RP-HPLC on two different columns (Aeris Peptide XB-C18, Jupiter Proteo C12)
[2] = conjugation step, one disulfide bridge, sequence written open

In the case of `CC(=O)N[C@@H](CCCCn1cc(C[C@H](NC(=O)CCOCCOCCOCCNC(=O)[C@H](CCCNC(N)=O)NC(=O)[C@@H](NC(=O)[C@H](CCC(=O)O)NC(=O)CNC(=O)CNC(=O)[C@@H](CCCNC(=N)N)NC(=O)[C@@H](CC(C)C)NC(=O)[C@@H](CC(C)C)NC(=O)[C@@H](C)NC(=O)[C@@H](CCC(=O)O)NC(=O)[C@@H](Cc2ccccc2)NC(=O)[C@@H](C)NC(=O)[C@@H](CC(C)C)NC(=O)[C@H]2CCCN2C(=O)[C@@H](Cc2c[nH]c3ccccc23)NC(=O)[C@@H](Cc2c[nH]c3ccccc23)NC(=O)[C@@H](CC(=O)O)NC(=O)CCOCCOCCOCCNC(=O)CCCCC[N+]2=C(/C=C/C=C/C=C3N(C)c4ccc(S(=O)(=O)O)cc4C3(C)C)C(C)(C)c3cc(S(=O)(=O)[O-])ccc32)C(C)C)C(N)=O)nn1)C(=O)N[C@@H](Cc1ccc(O)cc1)C(=O)N[C@@H](Cc1ccccc1)C(=O)N1CCC[C@H]1C(=O)N[C@@H]1CCSSC[C@@H](C(=O)O)NC(=O)[C@H](Cc2ccccc2)NC(=O)[C@H](C)NC(=O)[C@H](Cc2ccccc2)NC(=O)[C@H](CCC(N)=O)NC1=O` [2Cy] (I: {X2-PEG3}-[dD][dW][dW][dP][dL][dA][dF][dE][dA][dL][dL][dR]GGEV[Cit][PEG3][Pra]-NH2 / II: Ac-[Lys(N3)]YFP[d(hCys)]QFAFC-OH; triazole I:19-II:1; disulfide II:5-II:10), the “median intracellular diffusion coefficient” value (HEK293_CMKLR1-eYFP cells) is reported as 13.1 μm^2/s, the “median intracellular diffusion coefficient” value (HMEC-1 cells) is reported as 180 μm^2/s and the “median intracellular diffusion coefficient” value (THP-1 cells) is reported as 28.9 μm^2/s.
For Ac–K(N3)YFP-hcys-QFAFC–OH, the “final HPLC purity” value ([1]; whole synthesis, scale of the general procedure 15 µmol, one disulfide bridge, sequence written open) was >95%.
In the case of “Cy5-(EG)3-dwwplafeallrGEV-Cit-(EG)3-Pra(cC9)-NH2”, the “final HPLC purity” value [1, 2] is reported as >95%.
With “GSVSHHHHHHGGHHHH-(EG)3-k(Cy5-(EG)3)dwwplafeallrGEV-Cit-(EG)3-Pra(cC9)-NH2” the “final HPLC purity” value [1, 2] was >95% and the conjugation yield [1, 2] was 33%.
With “I: GSVSHHHHHHGGHHHH[PEG3][dK]([PEG3-X1])[dD][dW][dW][dP][dL][dA][dF][dE][dA][dL][dL][dR]GEV[Cit][PEG3][Pra]-NH2 / II: Ac-[Lys(N3)]YFP[d(hCys)]QFAFC-OH (triazole I:36-II:1; disulfide II:5-II:10) [3Cy]” the “median intracellular diffusion coefficient” value (HEK293_CMKLR1-eYFP cells) was 11.3 μm^2/s, the “median intracellular diffusion coefficient” value (HMEC-1 cells) was 169 μm^2/s and the “median intracellular diffusion coefficient” value (THP-1 cells) was 32.6 μm^2/s.
In the case of “PEPTIDE1{G.S.V.S.H.H.H.H.H.H.G.G.H.H.H.H.[EG3].[dD].[dW].[dW].[dP].[dL].[dA].[dF].[dE].[dA].[dL].[dL].[dR].G.E.V.[Cit].[EG3].[PraTz].[am]}|PEPTIDE2{[ac].[LysTz].Y.F.P.[D-hCys].Q.F.A.F.C}$PEPTIDE1,PEPTIDE2,35:R3-2:R3|PEPTIDE2,PEPTIDE2,6:R3-11:R3$$$V2.0”, the “final HPLC purity” value ([1]; conjugation step) is reported as >95%.
In the case of “PEPTIDE1{[dR].[dR].[dR].[dR].[dR].[dR].[dR].[dR].[dR].[EG3].[dD].[dW].[dW].[dP].[dL].[dA].[dF].[dE].[dA].[dL].[dL].[dR].G.E.V.[Cit].[EG3].[Pra].[am]}$$$$V2.0”, the “final HPLC purity” value ([1]; whole synthesis, scale of the general procedure 15 µmol) is reported as >95%.
In the case of dwwplafeallrGEV-Cit-(EG)3-Pra(cC9)-NH2, the “final HPLC purity” value [1, 2] is reported as >95%.

For some of these results: One purity is given for all peptides; the source may state it once. For some of these results: Strings that start with PEPTIDE1 are HELM notation: dots part the residues, brackets hold end groups and non-standard residues. Where a SMILES comes first, the peptide text is derived from it. Bridges are numbered along the chain shown (N, C = ends). Roman numbers before positions name the chains, in order. Triazole bridges read from a SMILES are 1,4-linked. Where no end group is shown, it is not given here. Side-chain parts run from the residue outwards. [ ]: non-standard residue; d: D form. The star is where a group is joined. X2 = CN1C(=C/C=C/C=C/C2=[N+](CCCCCC(=O)*)c3ccc(S(=O)(=O)[O-])cc3C2(C)C)C(C)(C)c2cc(S(=O)(=O)O)ccc21; X1 = CN1C(=CC=CC=CC2=[N+](CCCCCC(=O)*)c3ccc(S(=O)(=O)[O-])cc3C2(C)C)C(C)(C)c2cc(S(=O)(=O)O)ccc21; Lys(N3) = [N-]=[N+]=NCCCC[C@H](N)C(=O)O; Cit = NC(=O)NCCC[C@H](N)C(=O)O; d(hCys) = N[C@H](CCS)C(=O)O; PEG3 = NCCOCCOCCOCCC(=O)O; Pra = C#CC[C@H](N)C(=O)O
